In PMC9818352:
Results are given in words; binding and its absence hold for the method and conditions named. Binding seen in cells or lysates may run through a third protein. Some entries that bind do so weakly or less than the wild type. Blank lines part the entries; values can stand above or below the molecule they belong to.

By UniProt entry, the sequences of proteins in these tests, tags left out. Residues count along the entry.
UniProt Q13751, residues 18-1172: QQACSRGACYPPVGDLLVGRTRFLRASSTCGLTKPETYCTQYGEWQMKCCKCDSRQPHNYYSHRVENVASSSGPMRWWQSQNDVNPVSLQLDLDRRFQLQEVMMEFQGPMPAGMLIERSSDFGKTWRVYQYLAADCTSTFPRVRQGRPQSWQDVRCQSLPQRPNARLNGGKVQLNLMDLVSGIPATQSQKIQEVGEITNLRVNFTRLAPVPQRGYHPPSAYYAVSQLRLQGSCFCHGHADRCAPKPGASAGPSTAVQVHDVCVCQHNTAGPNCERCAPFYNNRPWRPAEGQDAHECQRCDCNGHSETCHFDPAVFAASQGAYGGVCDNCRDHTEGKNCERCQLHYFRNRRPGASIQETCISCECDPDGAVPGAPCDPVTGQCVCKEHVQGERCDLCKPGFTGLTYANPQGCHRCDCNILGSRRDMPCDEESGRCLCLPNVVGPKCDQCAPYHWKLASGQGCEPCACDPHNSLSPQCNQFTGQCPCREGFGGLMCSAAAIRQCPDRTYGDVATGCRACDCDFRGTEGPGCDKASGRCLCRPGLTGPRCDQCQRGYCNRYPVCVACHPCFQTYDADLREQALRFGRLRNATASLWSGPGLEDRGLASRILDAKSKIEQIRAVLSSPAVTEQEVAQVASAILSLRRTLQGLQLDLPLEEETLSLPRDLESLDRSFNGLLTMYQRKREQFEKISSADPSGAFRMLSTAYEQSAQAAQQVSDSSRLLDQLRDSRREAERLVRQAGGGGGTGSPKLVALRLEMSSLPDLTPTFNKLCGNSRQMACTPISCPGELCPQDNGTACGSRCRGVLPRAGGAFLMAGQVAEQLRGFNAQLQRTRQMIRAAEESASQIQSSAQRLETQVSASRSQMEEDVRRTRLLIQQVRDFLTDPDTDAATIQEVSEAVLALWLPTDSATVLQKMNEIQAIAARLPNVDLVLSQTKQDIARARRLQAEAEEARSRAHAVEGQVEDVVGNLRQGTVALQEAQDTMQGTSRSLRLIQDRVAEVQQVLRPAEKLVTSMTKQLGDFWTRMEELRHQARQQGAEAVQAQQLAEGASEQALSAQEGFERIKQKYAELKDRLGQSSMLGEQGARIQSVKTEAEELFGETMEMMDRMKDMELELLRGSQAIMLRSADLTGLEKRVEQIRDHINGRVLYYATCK
UniProt P60903: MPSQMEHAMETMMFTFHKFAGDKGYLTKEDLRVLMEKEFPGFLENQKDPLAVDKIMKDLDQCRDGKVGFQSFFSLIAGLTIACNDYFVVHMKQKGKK

Columns and labels:
[1] = molecular target: LAMB3 over-expressed from a plasmid containing full-length LAMB3 cDNA (pLAMB3), Flag-tagged (human) (UniProt Q13751); test: co-IP; PDAC cell lines transfected with plasmids (2.5 ng/uL) for 72 h; 500 ug lysate (IP lysis buffer, diluted in 1x PBS) with 5 ug mouse anti-FLAG monoclonal antibody and Protein A+G magnetic beads, 4 °C, 24 h; washed 3 times with cold PBS; western blotting
[2] = molecular target: S100A10 over-expressed from a plasmid containing full-length S100A10 cDNA (pS100A10) (human) (UniProt P60903); test: as above
[3] = molecular target: LAMB3, endogenous in PDAC cell lines (human (endogenous in PANC-1 and AsPC-1)) (UniProt Q13751); test: co-IP; endogenous proteins; 500 ug total protein of PANC-1 or AsPC-1 cells with 1 ug rabbit anti-LAMB3 polyclonal antibody and 20 uL Protein A+G magnetic beads, 4 °C, 24 h; western blotting

binding [1]: no binding
Molecule: S100A10, endogenous in PDAC cell lines (from UniProt P60903 1-97)

binding [2]: no binding
Molecule: LAMB3, endogenous in PDAC cell lines (from UniProt Q13751 18-1172)

binding [3]: binds
B1: LAMC2, endogenous in PDAC cell lines (protein, UniProt Q13753 22-1193)
chain: TSRREVCDCNGKSRQCIFDRELHRQTGNGFRCLNCNDNTDGIHCEKCKNGFYRHRERDRCLPCNCNSKGSLSARCDNSGRCSCKPGVTGARCDRCLPGFHMLTDAGCTQDQRLLDSKCDCDPAGIAGPCDAGRCVCKPAVTGERCDRCRSGYYNLDGGNPEGCTQCFCYGHSASCRSSAEYSVHKITSTFHQDVDGWKAVQRNGSPAKLQWSQRHQDVFSSAQRLDPVYFVAPAKFLGNQQVSYGQSLSFDYRVDRGGRHPSAHDVILEGAGLRITAPLMPLGKTLPCGLTKTYTFRLNEHPSNNWSPQLSYFEYRRLLRNLTALRIRATYGEYSTGYIDNVTLISARPVSGAPAPWVEQCICPVGYKGQFCQDCASGYKRDSARLGPFGTCIPCNCQGGGACDPDTGDCYSGDENPDIECADCPIGFYNDPHDPRSCKPCPCHNGFSCSVMPETEEVVCNNCPPGVTGARCELCADGYFGDPFGEHGPVRPCQPCQCNNNVDPSASGNCDRLTGRCLKCIHNTAGIYCDQCKAGYFGDPLAPNPADKCRACNCNPMGSEPVGCRSDGTCVCKPGFGGPNCEHGAFSCPACYNQVKIQMDQFMQQLQRMEALISKAQGGDGVVPDTELEGRMQQAEQALQDILRDAQISEGASRSLGLQLAKVRSQENSYQSRLDDLKMTVERVRALGSQYQNRVRDTHRLITQMQLSLAESEASLGNTNIPASDHYVGPNGFKSLAQEATRLAESHVESASNMEQLTRETEDYSKQALSLVRKALHEGVGSGSGSPDGAVVQGLVEKLEKTKSLAQQLTREATQAEIEADRSYQHSLRLLDSVSRLQGVSDQSFQVEEAKRIKQKADSLSSLVTRHMDEFKRTQKNLGNWKEEAQQLLQNGKSGREKSDQLLSRANLAKSRAQEALSMGNATFYEVESILKNLREFDLQVDNRKAEAEEAMKRLSYISQKVSDASDKTQQAERALGSAAADAQRAKNGAGEALEISSEIEQEIGSLNLEANVTADGALAMEKGLASLKSEMREVEGELERKELEFDTNMDAVQMVITEAQKVDTRAKNAGVTIQDTLNTLDGLLHLMDQPLSVDEEGLVLLEQKLSRAKTQINSQLRPMMSELEERARQQRGHLHLLETSIDGILADVKNLENIRDNLPPGCYNTQALEQQ
